Measurements: US20060216299A1, “Cell cycle targets and peptides” (Rigel Pharmaceuticals, Inc., priority 2002, published 2006)

Test system: A549 cell lysates
Test: Affinity extraction with biotinylated peptides; MALDI-TOF MS, LC/MS/MS, Western blotting
Type: binding, human
Settings: biotinylated peptide against inactive mutant control

Sequence | binding partners identified by affinity extraction
GRGCIFRWRRGLRGMMRLFK (GFP fusion) [#41, anti-proliferative peptide tested as GFP fusion] | beta tubulin, importin beta subunits 1, 2, and 7, annexin II, calpactin/S-100, and the chaperonin BiP/GRP78
RLRRICSGILLIRRILGIFVRPVRP (GMDELYKEEAAKARLRRICSGILLIRRILGIFV; N-terminal biotin) [#88, Peptide 35, also called peptide 88; tested as GFP fusion] | beta-tubulin, actin, importin beta, and restin
RWDPTRLLRFRFLRMLVRRSRPVRP (GFP fusion) [#40, anti-proliferative peptide tested as GFP fusion] | beta tubulin, importin beta 1 and beta 3, elongation factor tu, and ATP/ADP carrier protein, and a zinc finger protein
